Experimental findings from patent US20200131249A1, “NOVEL PROTEINS AND USE THEREOF” (EVOLVERITAS KFT., priority 2017, published 2020) are described below.

The chains behind the UniProt entries cited, without tags or fusion partners. Residues count along the entry.
UniProt O00187, residues 287-686: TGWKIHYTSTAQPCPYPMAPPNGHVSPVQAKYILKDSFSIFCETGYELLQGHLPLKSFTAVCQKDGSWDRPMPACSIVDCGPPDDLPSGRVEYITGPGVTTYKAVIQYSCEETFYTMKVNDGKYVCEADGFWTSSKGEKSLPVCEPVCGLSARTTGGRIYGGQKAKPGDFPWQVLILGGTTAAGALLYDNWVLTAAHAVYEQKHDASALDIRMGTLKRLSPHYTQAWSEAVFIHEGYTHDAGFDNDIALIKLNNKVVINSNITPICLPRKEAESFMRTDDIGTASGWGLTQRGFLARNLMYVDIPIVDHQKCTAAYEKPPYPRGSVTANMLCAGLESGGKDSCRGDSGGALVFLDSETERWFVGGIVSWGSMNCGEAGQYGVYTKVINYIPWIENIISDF

These are yes or no findings as the source states them, for the method shown. Some binding calls cover weakened binding; strength is not graded here.

In the experiment the target is human MASP-2 catalytic fragment CCP1-CCP2-SP (human) (UniProt O00187). Nature of the experiment: enzyme inhibition.

B1: protein according to SEQ ID NO: 11 (TFPI-D2 variant with the inhibitor loop FCRAVKR) (designed binder)
chain: KPDFCFLEEDPGFCRAVKRRYFYNNQTKQCERFKYGGCLGNMNNFETLEECKNICEDG
Consider B1, for which the binding result is on record as “binds”.

B2: protein according to SEQ ID NO: 17 (TFPI-D2 variant with the inhibitor loop VCRAVKR) (designed binder)
chain: KPDFCFLEEDPGVCRAVKRRYFYNNQTKQCERFKYGGCLGNMNNFETLEECKNICEDG
As for B2, the binding entry is “binds”.

B3: protein according to SEQ ID NO: 14 (TFPI-D2 variant with the inhibitor loop PCRAVKR) (designed binder)
chain: KPDFCFLEEDPGPCRAVKRRYFYNNQTKQCERFKYGGCLGNMNNFETLEECKNICEDG
Take B3: the binding result is listed as “binds”.
